We go through seven substances from article PMC10565876.

The chains behind the UniProt entries cited, without tags or fusion partners.
UniProt Q8NHY2: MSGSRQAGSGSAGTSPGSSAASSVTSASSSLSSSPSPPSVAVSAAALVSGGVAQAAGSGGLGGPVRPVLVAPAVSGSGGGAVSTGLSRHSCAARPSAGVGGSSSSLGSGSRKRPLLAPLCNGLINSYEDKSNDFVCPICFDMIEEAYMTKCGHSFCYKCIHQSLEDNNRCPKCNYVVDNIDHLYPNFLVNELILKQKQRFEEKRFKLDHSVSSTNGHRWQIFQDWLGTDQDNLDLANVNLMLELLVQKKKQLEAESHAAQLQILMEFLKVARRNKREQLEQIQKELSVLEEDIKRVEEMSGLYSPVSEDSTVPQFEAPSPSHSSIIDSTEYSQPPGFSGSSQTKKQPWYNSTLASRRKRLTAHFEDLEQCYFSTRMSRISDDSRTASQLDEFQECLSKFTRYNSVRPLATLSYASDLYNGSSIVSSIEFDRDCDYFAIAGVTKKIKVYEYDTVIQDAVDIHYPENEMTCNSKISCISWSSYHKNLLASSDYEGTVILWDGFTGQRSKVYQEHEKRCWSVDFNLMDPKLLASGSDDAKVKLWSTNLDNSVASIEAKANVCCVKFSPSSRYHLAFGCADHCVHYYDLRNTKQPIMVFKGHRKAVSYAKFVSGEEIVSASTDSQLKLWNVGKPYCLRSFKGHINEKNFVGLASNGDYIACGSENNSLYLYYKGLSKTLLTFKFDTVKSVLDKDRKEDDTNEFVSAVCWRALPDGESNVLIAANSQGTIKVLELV
UniProt Q8TEB1: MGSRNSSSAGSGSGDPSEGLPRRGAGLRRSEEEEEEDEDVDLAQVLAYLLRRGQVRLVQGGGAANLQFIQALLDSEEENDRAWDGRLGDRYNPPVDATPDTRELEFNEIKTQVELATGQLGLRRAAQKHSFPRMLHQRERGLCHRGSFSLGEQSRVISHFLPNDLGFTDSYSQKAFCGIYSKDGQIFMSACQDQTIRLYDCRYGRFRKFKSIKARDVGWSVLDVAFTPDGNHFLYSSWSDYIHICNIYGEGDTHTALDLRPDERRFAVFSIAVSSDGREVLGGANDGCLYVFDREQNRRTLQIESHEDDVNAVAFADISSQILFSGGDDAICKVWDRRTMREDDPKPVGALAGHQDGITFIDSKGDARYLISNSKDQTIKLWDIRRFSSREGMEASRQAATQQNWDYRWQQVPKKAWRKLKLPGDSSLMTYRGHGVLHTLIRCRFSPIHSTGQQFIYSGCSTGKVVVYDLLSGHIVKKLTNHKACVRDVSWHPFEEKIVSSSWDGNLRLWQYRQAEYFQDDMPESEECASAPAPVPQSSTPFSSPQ
UniProt Q58WW2: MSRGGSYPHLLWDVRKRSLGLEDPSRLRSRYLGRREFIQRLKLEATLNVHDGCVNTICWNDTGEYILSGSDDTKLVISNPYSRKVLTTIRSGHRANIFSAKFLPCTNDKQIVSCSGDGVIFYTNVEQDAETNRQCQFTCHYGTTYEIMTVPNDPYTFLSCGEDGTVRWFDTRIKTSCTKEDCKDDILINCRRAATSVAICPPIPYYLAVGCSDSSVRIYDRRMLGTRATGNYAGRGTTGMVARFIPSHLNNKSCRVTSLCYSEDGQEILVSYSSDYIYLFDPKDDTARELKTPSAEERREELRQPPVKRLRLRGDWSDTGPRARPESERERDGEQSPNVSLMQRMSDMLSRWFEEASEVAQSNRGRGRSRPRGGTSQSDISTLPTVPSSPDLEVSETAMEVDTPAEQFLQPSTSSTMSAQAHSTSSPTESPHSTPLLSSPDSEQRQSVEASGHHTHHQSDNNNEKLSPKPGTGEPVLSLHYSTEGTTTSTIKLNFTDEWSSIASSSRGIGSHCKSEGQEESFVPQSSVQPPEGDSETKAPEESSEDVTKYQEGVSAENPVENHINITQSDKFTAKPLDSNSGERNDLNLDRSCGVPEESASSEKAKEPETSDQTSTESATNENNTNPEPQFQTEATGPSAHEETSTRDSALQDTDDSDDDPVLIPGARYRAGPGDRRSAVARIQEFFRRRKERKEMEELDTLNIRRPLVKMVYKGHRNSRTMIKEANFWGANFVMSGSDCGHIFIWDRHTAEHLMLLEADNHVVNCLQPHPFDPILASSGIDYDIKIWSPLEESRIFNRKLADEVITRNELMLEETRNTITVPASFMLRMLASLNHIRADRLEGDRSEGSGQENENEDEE
UniProt P62879: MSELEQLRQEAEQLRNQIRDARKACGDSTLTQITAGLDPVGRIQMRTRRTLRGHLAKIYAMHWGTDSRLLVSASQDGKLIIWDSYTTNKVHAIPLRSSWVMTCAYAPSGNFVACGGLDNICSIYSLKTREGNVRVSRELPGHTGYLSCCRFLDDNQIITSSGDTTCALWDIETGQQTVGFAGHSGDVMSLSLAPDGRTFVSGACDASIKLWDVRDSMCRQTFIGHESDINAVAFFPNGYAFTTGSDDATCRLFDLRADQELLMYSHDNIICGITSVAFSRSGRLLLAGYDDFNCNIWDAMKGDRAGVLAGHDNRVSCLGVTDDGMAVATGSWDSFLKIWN
UniProt Q92466: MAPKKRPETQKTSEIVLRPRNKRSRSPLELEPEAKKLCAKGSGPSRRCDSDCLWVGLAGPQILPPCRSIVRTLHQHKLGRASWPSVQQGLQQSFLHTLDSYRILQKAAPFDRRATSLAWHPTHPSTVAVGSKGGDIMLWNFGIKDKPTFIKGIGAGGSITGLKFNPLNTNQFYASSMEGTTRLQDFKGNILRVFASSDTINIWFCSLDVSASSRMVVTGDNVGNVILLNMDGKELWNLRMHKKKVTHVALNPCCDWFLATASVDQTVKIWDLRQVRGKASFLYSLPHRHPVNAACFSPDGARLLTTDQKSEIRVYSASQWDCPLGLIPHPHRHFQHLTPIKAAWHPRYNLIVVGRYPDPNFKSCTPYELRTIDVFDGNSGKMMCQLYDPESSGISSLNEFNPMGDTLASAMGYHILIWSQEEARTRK
UniProt Q9BQ67: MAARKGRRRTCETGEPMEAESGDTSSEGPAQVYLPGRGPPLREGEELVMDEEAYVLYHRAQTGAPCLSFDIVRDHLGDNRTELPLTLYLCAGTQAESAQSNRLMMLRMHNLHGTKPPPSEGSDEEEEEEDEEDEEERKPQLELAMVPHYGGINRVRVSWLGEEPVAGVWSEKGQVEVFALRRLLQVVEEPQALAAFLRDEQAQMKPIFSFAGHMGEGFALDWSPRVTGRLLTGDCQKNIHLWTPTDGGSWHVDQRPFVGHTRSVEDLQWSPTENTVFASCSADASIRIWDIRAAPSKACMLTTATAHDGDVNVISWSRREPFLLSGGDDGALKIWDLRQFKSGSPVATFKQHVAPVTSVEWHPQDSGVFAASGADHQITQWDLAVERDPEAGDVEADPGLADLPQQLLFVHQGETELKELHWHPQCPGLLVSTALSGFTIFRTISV
UniProt Q5TAQ9: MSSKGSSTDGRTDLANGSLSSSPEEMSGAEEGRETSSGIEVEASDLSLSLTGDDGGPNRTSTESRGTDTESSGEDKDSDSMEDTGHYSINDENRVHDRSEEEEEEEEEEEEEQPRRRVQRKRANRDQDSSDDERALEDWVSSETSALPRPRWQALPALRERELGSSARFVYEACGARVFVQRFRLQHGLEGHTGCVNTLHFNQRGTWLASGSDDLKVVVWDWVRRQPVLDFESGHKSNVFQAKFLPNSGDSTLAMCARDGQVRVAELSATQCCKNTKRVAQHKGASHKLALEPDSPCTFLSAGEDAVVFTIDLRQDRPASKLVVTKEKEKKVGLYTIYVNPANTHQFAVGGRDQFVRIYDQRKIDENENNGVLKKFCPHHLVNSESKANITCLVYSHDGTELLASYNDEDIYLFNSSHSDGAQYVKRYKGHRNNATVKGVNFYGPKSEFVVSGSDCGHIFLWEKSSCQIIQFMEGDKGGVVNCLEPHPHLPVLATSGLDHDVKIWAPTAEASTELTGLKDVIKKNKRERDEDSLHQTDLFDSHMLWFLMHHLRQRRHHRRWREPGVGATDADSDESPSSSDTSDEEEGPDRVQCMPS
UniProt Q9NZJ0: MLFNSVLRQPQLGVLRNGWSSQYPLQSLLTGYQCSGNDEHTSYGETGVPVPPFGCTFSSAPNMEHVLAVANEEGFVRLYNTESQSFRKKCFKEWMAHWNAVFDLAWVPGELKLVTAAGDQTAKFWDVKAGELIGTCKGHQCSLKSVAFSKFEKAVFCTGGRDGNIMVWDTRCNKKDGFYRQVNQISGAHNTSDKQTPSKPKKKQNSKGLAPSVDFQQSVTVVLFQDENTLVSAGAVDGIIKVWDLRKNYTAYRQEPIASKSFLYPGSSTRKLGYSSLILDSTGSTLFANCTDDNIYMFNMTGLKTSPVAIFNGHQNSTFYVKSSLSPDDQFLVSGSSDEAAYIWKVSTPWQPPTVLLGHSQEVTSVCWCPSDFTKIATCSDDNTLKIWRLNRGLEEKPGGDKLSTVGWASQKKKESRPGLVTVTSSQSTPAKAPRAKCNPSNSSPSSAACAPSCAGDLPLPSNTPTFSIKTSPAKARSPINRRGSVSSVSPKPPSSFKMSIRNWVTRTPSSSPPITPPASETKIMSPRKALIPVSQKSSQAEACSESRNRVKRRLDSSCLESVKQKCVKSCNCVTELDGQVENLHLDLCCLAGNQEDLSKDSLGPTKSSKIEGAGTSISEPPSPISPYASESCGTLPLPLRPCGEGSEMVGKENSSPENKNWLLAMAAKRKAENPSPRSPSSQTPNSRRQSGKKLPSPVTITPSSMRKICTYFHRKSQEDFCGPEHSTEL

Test [1] addresses myc-BirA∗-RFWD2 (human (cDNA from HeLa and HEK293 cells)) (UniProt Q8NHY2). Briefly: proximity labelling; BioID with each of 58 myc-BirA∗-DCAFs as bait in stable U2OS Flp-In T-Rex cells; doxycycline, 50 μM biotin 24 h; streptavidin beads, LC-MS/MS; interactor = SAINT score over 0.7 against myc-BirA∗ control; N = 2.
The target in test [2] is T1, myc-BirA∗-TRPC4AP (human (cDNA from HeLa and HEK293 cells)) (UniProt Q8TEL6).
T1 sequence: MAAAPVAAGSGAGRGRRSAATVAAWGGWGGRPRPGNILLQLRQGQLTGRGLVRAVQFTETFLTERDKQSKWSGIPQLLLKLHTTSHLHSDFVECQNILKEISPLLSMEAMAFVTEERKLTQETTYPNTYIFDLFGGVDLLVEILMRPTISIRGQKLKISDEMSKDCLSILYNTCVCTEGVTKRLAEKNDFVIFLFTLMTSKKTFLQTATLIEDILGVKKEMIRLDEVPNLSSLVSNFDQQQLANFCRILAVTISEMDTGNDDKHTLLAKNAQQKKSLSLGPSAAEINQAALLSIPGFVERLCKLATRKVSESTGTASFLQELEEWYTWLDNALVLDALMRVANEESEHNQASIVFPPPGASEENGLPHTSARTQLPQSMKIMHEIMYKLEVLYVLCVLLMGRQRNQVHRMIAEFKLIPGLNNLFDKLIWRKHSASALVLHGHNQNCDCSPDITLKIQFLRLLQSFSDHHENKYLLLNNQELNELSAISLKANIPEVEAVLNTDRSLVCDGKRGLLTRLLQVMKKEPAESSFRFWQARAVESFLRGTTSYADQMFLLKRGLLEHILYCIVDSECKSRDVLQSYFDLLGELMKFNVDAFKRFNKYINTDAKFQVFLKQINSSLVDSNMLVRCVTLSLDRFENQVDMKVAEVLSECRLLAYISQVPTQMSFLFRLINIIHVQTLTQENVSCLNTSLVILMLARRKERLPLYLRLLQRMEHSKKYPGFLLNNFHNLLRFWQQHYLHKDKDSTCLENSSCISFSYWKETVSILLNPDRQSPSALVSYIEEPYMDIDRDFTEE
The test is described as above.

In test [3] the target is myc-BirA∗-DCAF11 (human (cDNA from HeLa and HEK293 cells)) (UniProt Q8TEB1). Described as above.
The target in test [4] is myc-BirA∗-DCAF6 (human (cDNA from HeLa and HEK293 cells)) (UniProt Q58WW2). Described as above.
In test [5] the target is myc-BirA∗-GNB2 (human (cDNA from HeLa and HEK293 cells)) (UniProt P62879). Described as above.
Test [6] concerns the target T2, myc-BirA∗-WDTC1 (human (cDNA from HeLa and HEK293 cells)) (UniProt Q8N5D0).
T2 sequence: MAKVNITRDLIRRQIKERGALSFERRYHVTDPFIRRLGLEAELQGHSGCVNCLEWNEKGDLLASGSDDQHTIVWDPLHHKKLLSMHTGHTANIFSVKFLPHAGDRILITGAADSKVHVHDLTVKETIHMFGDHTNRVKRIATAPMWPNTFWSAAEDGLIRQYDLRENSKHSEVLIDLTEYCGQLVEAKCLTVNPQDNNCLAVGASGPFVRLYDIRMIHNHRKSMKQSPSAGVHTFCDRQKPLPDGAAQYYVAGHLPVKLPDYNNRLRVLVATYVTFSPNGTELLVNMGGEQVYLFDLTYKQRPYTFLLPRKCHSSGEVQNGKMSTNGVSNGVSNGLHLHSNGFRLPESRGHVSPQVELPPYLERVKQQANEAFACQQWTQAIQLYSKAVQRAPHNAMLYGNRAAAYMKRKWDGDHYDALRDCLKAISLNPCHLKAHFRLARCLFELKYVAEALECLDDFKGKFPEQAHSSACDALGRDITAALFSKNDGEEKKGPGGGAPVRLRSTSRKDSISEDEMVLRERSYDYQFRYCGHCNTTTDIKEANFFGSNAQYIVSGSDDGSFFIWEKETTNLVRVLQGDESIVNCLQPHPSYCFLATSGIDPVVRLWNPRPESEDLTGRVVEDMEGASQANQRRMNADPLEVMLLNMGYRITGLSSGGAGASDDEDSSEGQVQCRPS
Described as above.

Test [7] deals with T3, myc-BirA∗-DCAF4 (human (cDNA from HeLa and HEK293 cells)) (UniProt Q8WV16).
T3 sequence: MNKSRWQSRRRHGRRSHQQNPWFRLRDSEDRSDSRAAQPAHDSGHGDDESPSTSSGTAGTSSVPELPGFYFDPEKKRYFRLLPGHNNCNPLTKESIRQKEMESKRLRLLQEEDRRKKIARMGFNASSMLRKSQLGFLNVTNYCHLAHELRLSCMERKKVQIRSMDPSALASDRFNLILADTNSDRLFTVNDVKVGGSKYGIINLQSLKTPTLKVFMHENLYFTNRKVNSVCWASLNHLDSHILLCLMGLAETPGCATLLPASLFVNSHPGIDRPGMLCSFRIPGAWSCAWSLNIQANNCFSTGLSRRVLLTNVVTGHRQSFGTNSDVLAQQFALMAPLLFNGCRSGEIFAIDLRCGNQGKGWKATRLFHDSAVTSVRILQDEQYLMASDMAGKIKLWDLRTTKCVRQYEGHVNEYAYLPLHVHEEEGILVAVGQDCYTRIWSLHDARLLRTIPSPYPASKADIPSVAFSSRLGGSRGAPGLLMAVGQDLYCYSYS
The description is as above.

For test [8], the target named is myc-BirA∗-DDB2 (human (cDNA from HeLa and HEK293 cells)) (UniProt Q92466). The test is described as above.
In test [9] the target is GFP-DDB1 (human (cDNA from HeLa and HEK293 cells)) (UniProt Q16531). Briefly: affinity purification with mass spectrometry; GFP-DDB1 from U2OS Flp-In T-Rex lysate (50 mM Tris pH 7.4, NaCl, 1% Triton X-100, nuclease) on GFP-trap agarose beads, 3 h at 4 °C; SILAC: bait cells heavy (R10K8), GFP control cells light (R0K0); enriched = H/L ratio over 2; N = 3.
The target of test [10] is myc-BirA∗-DDB1 (human (cDNA from HeLa and HEK293 cells)) (UniProt Q16531). Briefly: proximity labelling; BioID with myc-BirA∗-DDB1 as bait in U2OS Flp-In T-Rex cells; doxycycline, 50 μM biotin 24 h; denaturing lysis, streptavidin beads, LC-MS/MS; SILAC: bait cells heavy (R10K8), myc-BirA∗ control cells light (R0K0); enriched = H/L ratio over 2; N = 3.

Results are given in words; binding and its absence hold for the method and conditions named. Binding seen in cells or lysates may run through a third protein. These calls come from enrichment with a bait or labelling near it, and not all partners need be listed. For some of these results: Tags and fused reporters may be left off the sequences shown.

In the case of DDB1 (from UniProt Q16531 1-1140), the binding result in test [1], in [2], in test [3], in test [4], in [5] and in test [6] was “binds” in each case. Also, the binding entry in [7] and in test [8] was “binds” in each case.

Regarding GRWD1 (from UniProt Q9BQ67 1-446), the binding entry in [9] is “binds”.

In the case of DDB2 (from UniProt Q92466 1-427), the binding entry in test [10] and in [9] was “binds” in each case.

For the substance PHIP (from UniProt Q8WWQ0 1-1821), the binding result in test [10] is reported as “binds”.

DCAF8 (from UniProt Q5TAQ9 1-597): the binding entry in test [9] is given as “binds”.

With DTL (from UniProt Q9NZJ0 1-730), the binding result in [10] is “binds”.

For the substance DCAF6 (from UniProt Q58WW2 1-860), the binding result in test [10] and in test [9] was “binds” in each case.
